The whole screen tested about 52,000 sequences, of which about 210 (0.4%) were called active.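 Rule for the calls: active = gene whose silencing raises cell survival under the drug, median off-target-corrected z-score across its silencing RNAs 2 or more; inactive = the rest.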 The list shows a part of the results.
Test: Resistance to Poly (ADP-Ribose) Polymerase inhibitor: Gene Identification via Genome-wide siRNA Screen
Conditions: mouse BRCA2 R2336H ES cells, olaparib, CellTiter-Glo viability; hits give high values
In short: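 Genome-wide siRNA screen (3 siRNAs/gene, 20 nM) in mouse ES cells carrying hypomorphic BRCA2 R2336H; olaparib 500 nM added 48 h post-transfection, CellTiter-Glo viability 72 h later. Normalized to plate-median negative control; MAD z-scores, gene median, seed-adjusted.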
For GCCUGUGUGUUGCUGUAAGTT against Krtap5-1, the z-score was inactive: -0.0331.
With “GCUGGAUCUACCUAUUCAATT against 4921509C19Rik” the z-score was inactive: 0.184.
For GCGACAUUGCCCUUCUCUGTT against LOC260408, the z-score was inactive: -1.05.
In the case of GGAGAUCAUGAAGAUCACATT against Mapk12, the z-score is reported as inactive: 1.34.
In the case of GCUCUCAAUUGAGGAUAAATT against Mthfd1, the z-score is reported as inactive: -0.599.
For “GGAGCUAAUAAUGGUCAAATT against B230206N24Rik”, the z-score was inactive: 1.1.
With GGACUCGUUCCACUAUCAUTT against Nat5 the z-score was inactive: 0.096.
For GGAAGAUGAUUUUGACAAUTT against Pcdh18, the z-score was inactive: -0.203.
For GGUUGCUAUGAUUUUUGUUTT against Itsn1, the z-score was inactive: -0.31.
For GGAAAACCACCAUUUUAUGTT against Zfp36l1, the z-score was inactive: 1.13.
In the case of “CCUAAAGAAAGGUUAAAGATT against 6330577E15Rik”, the z-score is reported as inactive: -1.26.
For CGGUGACAUUUGUGAAACUTT against Smn1, the z-score was inactive: -1.7.
With GCGAUGAUGUGCUUAUGUCTT against Znf341 the z-score was inactive: 0.576.
For “GCUAGGUGAUCAGAGAACUTT against 4833432M17Rik”, the z-score was inactive: 0.589.
With “GGAACCUGUCCUAUAUAGGTT against 6030490I01Rik” the z-score was inactive: 1.62.
With GGGCCAAUAGGAGUUCUUUTT against Tcf20 the z-score was inactive: -0.107.
In the case of “GGGAAUGUAUCCACAUCAATT against 1700017G21Rik”, the z-score is reported as inactive: 1.1.
In the case of CCACCGUAAACUUCCCACCTT against LOC238447, the z-score is reported as inactive: 0.598.
With GAGCUAUACAAGGCCUACCTT against LOC547349 the z-score was inactive: -1.01.
For “CGUUAACUCUCGGACGAUCTT against 1110028A07Rik”, the z-score was inactive: -0.104.
In the case of CCUACUAUGGCUCAUUUUATT against Rybp, the z-score is reported as inactive: 1.78.
With GGCCAAAUGACUGAGAUUGTT against Dscr1l2 the z-score was inactive: 0.715.
For GGUGUUGCUUAUCAUCGGCTT against Mrgprh, the z-score was inactive: 0.442.
In the case of GGCCCAGAAGUUAUUCCUGTT against Zfp566, the z-score is reported as inactive: 3.18.
For “GGUUGUAAAGAUGAGAAAATT against 2810036K01Rik”, the z-score was inactive: -0.64.
In the case of CGAGCAGUGAAGACCAUCUTT against Klk14, the z-score is reported as inactive: -2.31.
In the case of GGCUGUUCGGGUGACUAUUTT against Il17re, the z-score is reported as inactive: -1.71.
For “GGACAGGACAGCUUUGCACTT against 4921537P18Rik”, the z-score was inactive: -0.153.
For GCCACUACUUAGUGUCUUCTT against Plcd, the z-score was inactive: 0.807.
In the case of GGAUGAGAACUUCAUCCUATT against Ppia, the z-score is reported as inactive: 0.558.
For GGCAAAAUAAAGCUUAAGGTT against Robo3, the z-score was inactive: -0.675.
In the case of GGCCACCAUCCAUGAGAACTT against Kcne2, the z-score is reported as inactive: 0.363.
In the case of GCUAGUUCUGAGAGACAGATT against Mup5, the z-score is reported as inactive: -1.72.
In the case of GGAGAAGAUGUGGAGACAUTT against Edf1, the z-score is reported as inactive: 2.39.
In the case of GAGAAUCCAGAACUCCAAUTT against Olfr952, the z-score is reported as inactive: -0.963.
With GGAUCCAGUUUUGUUUUUGTT against Slc28a2 the z-score was inactive: 0.113.
For CCAUGCAUGUUUUAGGCCATT against AI987692, the z-score was inactive: 1.54.
In the case of GCCUGGAUAGGCUUAAAGATT against Dpep2, the z-score is reported as inactive: 0.979.
For GGUCUUUUCACAUACAUAUTT against Fstl1, the z-score was inactive: -1.99.
For GCUUUCGGACUACAGAGGGTT against Prdx2, the z-score was inactive: 0.607.
With GGAUCUAAAGGUGAGUCAATT against Wdr40b the z-score was inactive: -0.275.
With GGUCCAAUUAAGGUUUUGUTT against Pias1 the z-score was inactive: 1.57.
In the case of GCACCAAGGUCCUACUUGATT against BC049730, the z-score is reported as inactive: 2.03.
In the case of “GGAUAUAAUAUCCUCGUAUTT against 2310045A20Rik”, the z-score is reported as inactive: -0.603.
In the case of GGAGAUGGAGGAGAAAGCATT against Art5, the z-score is reported as inactive: -0.246.
With “GCACUUCCGACUUUUUCACTT against 9030224M15Rik” the z-score was inactive: 0.317.
In the case of GUAUCAUACAAUGAUGUCCTT against Olfr176, the z-score is reported as inactive: 0.628.
With GGCUCAAGGCACUCAAUACTT against Olfr550 the z-score was inactive: 0.719.
With “GCUACUAAAUUCUGUUUUGTT against 8430427H17Rik” the z-score was inactive: 1.94.
For AACCAGAGGUCCUAAAUACTT against Mmp28, the z-score was inactive: 1.09.
In the case of CCAAACACAGUUGCACAGGTT against Apg4a, the z-score is reported as inactive: -0.27.
In the case of CGGACUUACCAAAAGCGCATT against Lss, the z-score is reported as inactive: 0.0975.
In the case of “GGAAAUUUGAGACUCUGCUTT against 4933414E04Rik”, the z-score is reported as inactive: 0.909.
For CGAGAUAGAGUACAUCUUCTT against Vegfa, the z-score was inactive: 0.218.
With GGGAAGUCUACAUAAAUCCTT against Gm1012 the z-score was inactive: -0.0833.
With CCACUUCUCUAAGACAAUCTT against Acox3 the z-score was inactive: -0.352.
With GGUGGCUUAGCACGAAGCATT against Elk1 the z-score was inactive: -1.08.
In the case of “CCCAAACAACUUGUAAAUCTT against 2310005N03Rik”, the z-score is reported as inactive: 0.668.
In the case of CCUGAAUUAUGUGUAACUUTT against Ywhab, the z-score is reported as inactive: -0.339.
In the case of GCAGCAUCCCUACACGUUCTT against Galnt2, the z-score is reported as inactive: 0.516.
With GGAGCCAGAACUAGAAGCUTT against Nol3 the z-score was inactive: 0.382.
In the case of “GGAGUAAAGACAUUCAGGATT against C330026N02Rik”, the z-score is reported as inactive: 0.32.
In the case of “GCAAUCCAAGCCAAACUCCTT against B130021E18”, the z-score is reported as inactive: -0.69.
In the case of GGUGUCAGAACAAGGUUUGTT against Pdcd5, the z-score is reported as inactive: -0.71.
With GGUUCUAUGGCUCUCAAGATT against Ptgir the z-score was inactive: 1.09.
In the case of GCUGGUUAUUCUCUUAUAGTT against Sdpr, the z-score is reported as inactive: -0.511.

— PubChem BioAssay AID1347423 (Functional Genomics Laboratory (NCATS/FGL), 2020)
